From the supplement of paper PMC4604168 (melanoma cell lines)
The list shows a part of the results. Many values rest on one well or one pass, so single values are uncertain.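 Cells were imaged in 1,536-well plates, and nuclei stained with an antibody against cleaved PARP were counted against all DNA-stained nuclei to give the apoptosis fraction. Screening doses were chosen to leave most cells alive, and resting and induced cleaved-PARP levels differ strongly between cell lines.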

These molecules were tested on CBRC013 (line from a melanoma biopsy) (assay: cleaved PARP positive nuclei fraction relative to DMSO control; melanoma cells; higher = more apoptosis). Conditions: library dose: low library concentration; 72 h.

Going from `CC(C)(C)c1cnc(CSc2cnc(NC(=O)C3CCNCC3)s2)o1` + Oc1cc(-c2nc(-c3ccccc3)[nH]c2-c2ccncc2)ccc1Cl [L779450] (first compound 0.01 µM, partner dose 0.2 µM) to `Cc1nc(Nc2ncc(C(=O)Nc3c(C)cccc3Cl)s2)cc(N2CCN(CCO)CC2)n1` [dasatanib] + COC(=O)c1sccc1S(=O)(=O)Nc1ccc(Nc2ccccc2)cc1OC [GSK0660] (first compound 0.004 µM, partner dose 1 µM), the “cleaved PARP positive nuclei fraction” value rises from 79.3% to 220%.

First: C#Cc1cccc(Nc2ncnc3cc(OCCOC)c(OCCOC)cc23)c1 [erlotinib] + O=C(O)C(=O)Nc1sc2c(c1C(=O)O)CCNC2 [TCS401] (first compound 0.8 µM, partner dose 1.66667 µM)
Second: Cc1nc(Nc2ncc(C(=O)Nc3c(C)cccc3Cl)s2)cc(N2CCN(CCO)CC2)n1 [dasatanib] + c1cc(-c2cnn3cc(-c4ccc(OCCN5CCCCC5)cc4)cnc23)ccn1 [Dorsomorphin] (first compound 0.004 µM, partner dose 0.4 µM)
The “cleaved PARP positive nuclei fraction” value of the first is lower: 159% for the first, 255% for the second.

Compared with `Cn1c(Nc2ccc(C(F)(F)F)cc2)nc2cc(Oc3ccnc(-c4ncc(C(F)(F)F)[nH]4)c3)ccc21` + CCCCCCCCCCCC1=C(O)C(=O)C=C(O)C1=O [Embelin] (first compound 0.08 µM, partner dose 1.2 µM), `Cn1cncc1[C@@](N)(c1ccc(Cl)cc1)c1ccc2c(c1)c(-c1cccc(Cl)c1)cc(=O)n2C` [tipifarnib] + COc1cc2ncnc(Nc3ccc(Oc4ccccc4)cc3)c2cc1OC [SrcI1] (first compound 0.01 µM, partner dose 2 µM) is lower in “cleaved PARP positive nuclei fraction” value: 672% for the first, 99.2% for the second.

First: C#Cc1cccc(Nc2ncnc3cc(OCCOC)c(OCCOC)cc23)c1 [erlotinib] + COc1cc2ncnc(Nc3ccc(Oc4ccccc4)cc3)c2cc1OC [SrcI1] (first compound 0.8 µM, partner dose 2 µM)
Second: Cn1c(Nc2ccc(C(F)(F)F)cc2)nc2cc(Oc3ccnc(-c4ncc(C(F)(F)F)[nH]4)c3)ccc21 + O=C(Nc1ccccc1)c1cc([N+](=O)[O-])ccc1Cl [GW9662] (first compound 0.08 µM, partner dose 2 µM)
The “cleaved PARP positive nuclei fraction” value of the first is lower: 111% for the first, 135% for the second.

Going from `Nc1cccc2c1CN(C1CCC(=O)NC1=O)C2=O` (stereo not drawn) [lenalidomide] + Cn1cc(/C=C2\C(=O)Nc3cccnc32)c2ccccc21 [GW441756] (first compound 1 µM, partner dose 0.4 µM) to `Cn1cncc1[C@@](N)(c1ccc(Cl)cc1)c1ccc2c(c1)c(-c1cccc(Cl)c1)cc(=O)n2C` [tipifarnib] + O=C(O)C(=O)Nc1sc2c(c1C(=O)O)CCNC2 [TCS401] (first compound 0.01 µM, partner dose 1.66667 µM), the “cleaved PARP positive nuclei fraction” value rises from 104% to 190%.

Compared with `Cn1cncc1[C@@](N)(c1ccc(Cl)cc1)c1ccc2c(c1)c(-c1cccc(Cl)c1)cc(=O)n2C` [tipifarnib] + Oc1nc(-c2ccc(C(F)(F)F)cc2)nc2c1CSCC2 [XAV939] (first compound 0.01 µM, partner dose 2 µM), `Cn1nnc2c(C(N)=O)ncn2c1=O` [temozolomide] + COc1ccc2c(c1)CCC1C2CCC2(C)C(NCCCCCCN3C(=O)C=CC3=O)CCC12 [U73122] (first compound 2 µM, partner dose 0.4 µM) is lower in “cleaved PARP positive nuclei fraction” value: 412% for the first, 102% for the second.

The molecules below were run on CBRC014 (line from a melanoma biopsy) in the same assay as above. Conditions: library dose: low library concentration; 72 h.

Going from `OCCn1cc(-c2cnc3nnn(Cc4ccc5ncccc5c4)c3n2)cn1` + Oc1cc(-c2nc(-c3ccccc3)[nH]c2-c2ccncc2)ccc1Cl [L779450] (first compound 1 µM, partner dose 0.2 µM) to `Cc1nc(Nc2ncc(C(=O)Nc3c(C)cccc3Cl)s2)cc(N2CCN(CCO)CC2)n1` [dasatanib] + Cc1cc([N+](=O)[O-])ccc1NS(=O)(=O)c1cc(Cl)ccc1Cl [FH535] (first compound 0.004 µM, partner dose 1 µM), the “cleaved PARP positive nuclei fraction” value falls from 192% to 148%.

Compared with `CO[C@@H]1[C@H](N(C)C(=O)c2ccccc2)C[C@H]2O[C@]1(C)n1c3ccccc3c3c4c(c5c6ccccc6n2c5c31)C(=O)NC4` [Midostaurin] + O=C(Nc1ccccc1)c1cc([N+](=O)[O-])ccc1Cl [GW9662] (first compound 0.08 µM, partner dose 2 µM), `Cc1ccc(NC(=O)c2cccc(N(C)C)c2)cc1NC(=O)c1ccc(O)cc1` + N#Cc1c(O)c2c(-c3ccc(-c4ccccc4O)cc3)csc2[nH]c1=O [A769662] (first compound 2 µM, partner dose 2 µM) is higher in “cleaved PARP positive nuclei fraction” value: 102% for the first, 114% for the second.

Compared with `CC1(C)NC(=O)N(c2ccc([N+](=O)[O-])c(C(F)(F)F)c2)C1=O` [nilutamide] + COC(=O)c1sccc1S(=O)(=O)Nc1ccc(Nc2ccccc2)cc1OC [GSK0660] (first compound 1 µM, partner dose 1 µM), `Cn1c(Nc2ccc(C(F)(F)F)cc2)nc2cc(Oc3ccnc(-c4ncc(C(F)(F)F)[nH]4)c3)ccc21` + O=C1NC(=O)/C(=C/c2ccc(-c3ccc(F)cc3O)o2)S1 [AS252424] (first compound 0.08 µM, partner dose 1 µM) is higher in “cleaved PARP positive nuclei fraction” value: 190% for the first, 202% for the second.

First: C[C@@H]1CCN(C(=O)CC#N)C[C@@H]1N(C)c1ncnc2[nH]ccc12 + O=C(Nc1ccccc1)c1cc([N+](=O)[O-])ccc1Cl [GW9662] (first compound 1 µM, partner dose 2 µM)
Second: Cc1cc(N2CCOCC2)cc2[nH]c(-c3c(NC[C@@H](O)c4cccc(Cl)c4)cc[nH]c3=O)nc12 + O=C(O)C(=O)Nc1sc2c(c1C(=O)O)CCNC2 [TCS401] (first compound 0.2 µM, partner dose 1.66667 µM)
The “cleaved PARP positive nuclei fraction” value of the first is higher: 88.6% for the first, 79.9% for the second.

First: C=CCn1c(=O)c2cnc(Nc3ccc(N4CCN(C)CC4)cc3)nc2n1-c1cccc(C(C)(C)O)n1 + O=c1cc(-c2cccc3c2Sc2ccccc2S3)oc(N2CCOCC2)c1 [KU55933] (first compound 0.02 µM, partner dose 1 µM)
Second: Cc1cc(N2CCOCC2)cc2[nH]c(-c3c(NC[C@@H](O)c4cccc(Cl)c4)cc[nH]c3=O)nc12 + O=c1cc(-c2cccc3c2Sc2ccccc2S3)oc(N2CCOCC2)c1 [KU55933] (first compound 0.2 µM, partner dose 1 µM)
The “cleaved PARP positive nuclei fraction” value of the first is lower: 134% for the first, 204% for the second.

Going from `C=CCn1c(=O)c2cnc(Nc3ccc(N4CCN(C)CC4)cc3)nc2n1-c1cccc(C(C)(C)O)n1` + CCN(CC)CCCCNc1ncc2cc(-c3cc(OC)cc(OC)c3)c(NC(=O)NC(C)(C)C)nc2n1 [PD173074] (first compound 0.02 µM, partner dose 0.1 µM) to `Cn1c(Nc2ccc(C(F)(F)F)cc2)nc2cc(Oc3ccnc(-c4ncc(C(F)(F)F)[nH]4)c3)ccc21` + N#Cc1c(O)c2c(-c3ccc(-c4ccccc4O)cc3)csc2[nH]c1=O [A769662] (first compound 0.08 µM, partner dose 2 µM), the “cleaved PARP positive nuclei fraction” value falls from 126% to 107%.

First: C#Cc1cccc(Nc2ncnc3cc(OCCOC)c(OCCOC)cc23)c1 [erlotinib] + O=c1cc(-c2cccc3c2Sc2ccccc2S3)oc(N2CCOCC2)c1 [KU55933] (first compound 0.8 µM, partner dose 1 µM)
Second: COCC[n+]1c2c(n(Cc3cnccn3)c1C)C(=O)c1ccccc1C2=O + COc1ccc(-c2ccc3c(N4CCOCC4)nc(N4C[C@@H](C)O[C@@H](C)C4)nc3n2)cc1CO [KU0063794] (first compound 0.0004 µM, partner dose 0.02 µM)
The “cleaved PARP positive nuclei fraction” value of the first is higher: 90.3% for the first, 82.3% for the second.

Going from `NC(=O)Nc1cc(-c2cccc(F)c2)sc1C(=O)N[C@H]1CCCNC1` + CCCCCCCCCCCC1=C(O)C(=O)C=C(O)C1=O [Embelin] (first compound 0.02 µM, partner dose 1.2 µM) to `O=C(CCCCCCC(=O)Nc1ccccc1)NO` [vorinostat] + COc1ccc(COc2ccc(Cc3cnc(N)nc3N)cc2OC)cc1 [GW2580] (first compound 0.08 µM, partner dose 1 µM), the “cleaved PARP positive nuclei fraction” value falls from 116% to 87.7%.

Compared with `C=CCn1c(=O)c2cnc(Nc3ccc(N4CCN(C)CC4)cc3)nc2n1-c1cccc(C(C)(C)O)n1` + COc1cc2ncnc(Nc3ccc(Oc4ccccc4)cc3)c2cc1OC [SrcI1] (first compound 0.02 µM, partner dose 2 µM), `COc1cc(Nc2ncc(F)c(Nc3ccc4c(n3)NC(=O)C(C)(C)O4)n2)cc(OC)c1OC` [Tamatinib] + O=C1NC(=O)/C(=C/c2ccc(-c3ccc(F)cc3O)o2)S1 [AS252424] (first compound 0.4 µM, partner dose 1 µM) is lower in “cleaved PARP positive nuclei fraction” value: 324% for the first, 96.9% for the second.

Going from `Cn1nnc2c(C(N)=O)ncn2c1=O` [temozolomide] + COc1cc(N2CCC(N3CCN(C)CC3)CC2)ccc1Nc1ncc(Cl)c(Nc2ccccc2S(=O)(=O)C(C)C)n1 [NVP-TAE684] (first compound 2 µM, partner dose 0.08 µM) to `C#Cc1cccc(Nc2ncnc3cc(OCCOC)c(OCCOC)cc23)c1` [erlotinib] + Oc1cc(-c2nc(-c3ccccc3)[nH]c2-c2ccncc2)ccc1Cl [L779450] (first compound 0.8 µM, partner dose 0.2 µM), the “cleaved PARP positive nuclei fraction” value falls from 103% to 92.5%.

With `C#Cc1cccc(Nc2ncnc3cc(OCCOC)c(OCCOC)cc23)c1` [erlotinib] + N#Cc1c(O)c2c(-c3ccc(-c4ccccc4O)cc3)csc2[nH]c1=O [A769662] (first compound 0.8 µM, partner dose 2 µM) the “cleaved PARP positive nuclei fraction” value was 88%.
